System: focal middle cerebral arterial occlusion (MCAO) ischemia
Conditions: laser-Doppler flowmetry; for reduction in cerebral blood flow upon induction of ischemia: sustained for 1 h during ischemia, same in control and treated animals

Row | Compound | time for cerebral blood flow to return to baseline levels after cessation of ischemia [h] | reduction in cerebral blood flow upon induction of ischemia [%]
1 | CC(C)C[C@@H](NC(=O)[C@H](Cc1ccccc1)NC(=O)CNC(=O)[C@@H](C)NC(=O)[C@@H](N)Cc1ccc(O)cc1)C(=O)O [DADLE, Tyr-D-Ala-Gly-Phe-D-Leu-enkephalin] | ≤ 0.5 | 20
2 | CC(C)[C@H](NC(=O)[C@H](CC(=O)O)NC(=O)[C@H](Cc1ccccc1)NC(=O)[C@@H](C)NC(=O)[C@@H](N)Cc1ccc(O)cc1)C(=O)N[C@H](C(=O)NCC(N)=O)C(C)C [deltorphin, Tyr-Ala-Phe-Asp-Val-Val-Gly-NH2] | ≤ 0.5 | 25

From US6294519A, “Method for treating ischemia” (University of Kentucky Research Foundation, priority 2000, dated 2001)
